Laboratory results: PMC8225959 (Frontiers in Medicine, 2021)

Test: general procedure: Fmoc solid-phase peptide synthesis; rink amide resin (MBHA)
Conditions: conjugation step

Substance: D-Phe-Gln-Trp-Ala-Val-Gly-His-Sta-Leu-NH2
- conjugation yield: 57%
